Source: patent US20240075027A1, “REPOSITIONING THE ANTI-LEPROSY DRUG CLOFAZIMINE AGAINST DRUG-RESISTANT MYELOMA AND PUTATIVE STEM-CELL SUBCLONES” (Auburn University, priority 2022, published 2024)

System: HMCLs
Experiment: Gene expression profiling (RNA-seq), untreated vs treated
Format: cell-based, human
Details: for number of differentially regulated genes: |fold-change|>2 (p<0.05)

CC(C)/N=c1\cc2n(-c3ccc(Cl)cc3)c3ccccc3nc-2cc1Nc1ccc(Cl)cc1 [CLF, clofazimine]
number of differentially expressed genes vs CON (5 μM CLF, 24 hours, p<0.05, |fold-change|>1): 172 genes | number of differentially regulated genes (FLAM76): 426 genes | number of differentially regulated genes (JIM3): 128 genes | number of differentially regulated genes (LP1): 10 genes | number of differentially regulated genes (RPMI8226): 714 genes | number of differentially regulated genes (U266): 33 genes
